Taken from: PubChem BioAssay AID493246 (Drosophila RNAi Screening Center, 2011)
In all, the deposit lists about 21,000 reagents; shown is a random part of those that have a named target and a result. Of all reagents, 429 (2%) were called active. 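Values are raw and not normalised between plates; calls rest on per-plate z-scores that were not deposited.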 A number with no mark means an inactive call. Not given: the amount of reagent, the time to read-out.

- Purpose: 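Identify essential fly genes by loss of cell viability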 (primary screen)
- Cell system: Drosophila Kc and S2R+ cells
- Reagents: long dsRNA against Drosophila genes
- Detection: 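Raw, unnormalised count of remaining cells in each well; per-plate z-scores of cell number underlie the calls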
- Direction: Kc cell number and S2R+ cell number: higher = more cells remaining
- Call rule: 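Counted as a hit if cell number falls by a z-score of at least 3 within its plate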

target gene | DRSC id | Kc cell number, rep 1 | Kc cell number, rep 2 | S2R+ cell number, rep 1 | S2R+ cell number, rep 2
CG32668 | DRSC18879 | 1.64e6 | 1.78e6 | 1.15e6 | 1.19e6
CG9331 | DRSC03206 | 1.54e6 | 1.59e6 | 1.09e6 | 1.03e6
CG18853 | DRSC06795 | 1.64e6 | 1.63e6 | 1.34e6 | 1.47e6
CG7627 | DRSC03065 | 1.34e6 | 1.34e6 | 7.57e5 | 9.36e5
TTLL3B (Tubulin tyrosine ligase-like 3B) | DRSC02133 | 1.60e6 | 1.50e6 | 1.09e6 | 1.20e6
CG8745 | DRSC11033 | 1.59e6 | 1.68e6 | 1.22e6 | 1.27e6
CG8745 | DRSC11034 | 1.75e6 | 1.97e6 | 1.36e6 | 1.40e6
DCTN3-p24 (Dynactin 3, p24 subunit) | DRSC04592 | 1.31e6 | 1.39e6 | 1.12e6 | 1.14e6
alpha-Est4aPsi (pseudo) | DRSC12473 | 1.40e6 | 1.45e6 | 1.12e6 | 1.32e6
CG17147 | DRSC10249 | 1.69e6 | 1.82e6 | 1.25e6 | 1.44e6
CG9672 | DRSC20201 | 1.57e6 | 1.67e6 | 1.05e6 | 1.23e6
CG31462 (retired record) | DRSC14359 | 1.52e6 | 1.64e6 | 1.28e6 | 1.37e6
CG6891 | DRSC20016 | 1.82e6 | 1.91e6 | 1.17e6 | 1.31e6
Polr2L (RNA polymerase II, I and III subunit L) | DRSC14630 | 1.80e6 | 1.83e6 | 1.03e6 | 1.09e6
Marf1 (Meiosis regulator and mRNA stability factor 1) | DRSC03747 | 1.55e6 | 1.65e6 | 1.24e6 | 2.92e5
Marf1 (Meiosis regulator and mRNA stability factor 1) | DRSC03774 | 5.14e5 | – | 8.68e5 | –
CG9360 | DRSC20180 | 1.73e6 | 1.56e6 | 1.05e6 | 1.12e6
CG1662 | DRSC19754 | 6.47e5 | – | 9.02e5 | –
Cubn2 (Cubilin 2) | DRSC10561 | 1.75e6 | 1.68e6 | 1.42e6 | 1.58e6
Eig71Eb (Ecdysone-induced gene 71Eb) | DRSC11149 | 1.37e6 | 1.56e6 | 1.29e6 | 1.39e6
Jheh1 (Juvenile hormone epoxide hydrolase 1) | DRSC06529 | 1.30e6 | 1.39e6 | 1.10e6 | 1.12e6
lqfR (liquid facets-Related) | DRSC14703 | 1.38e6 | 1.53e6 | 1.06e6 | 1.15e6
lqfR (liquid facets-Related) | DRSC14704 | 1.48e6 | 1.49e6 | 1.29e6 | 1.40e6
spidey | DRSC17932 | 1.52e6 | 1.50e6 | 9.92e5 | 1.20e6
CG18088 | DRSC02654 | 1.49e6 | 1.54e6 | 1.18e6 | 1.36e6
orb2 | DRSC10540 | 1.35e6 | 1.44e6 | 1.21e6 | 1.18e6
orb2 | DRSC10541 | 1.55e6 | 1.38e6 | 1.30e6 | 1.23e6
orb2 | DRSC10542 | 1.45e6 | 1.66e6 | 1.23e6 | 1.25e6
NSD (Nuclear receptor binding SET domain protein) | DRSC15691 | 1.50e6 | 1.50e6 | 1.05e6 | 1.08e6
aurB (aurora B) | DRSC03548 | 1.28e6 | 1.38e6 | 9.91e5 | 1.03e6
CG15169 | DRSC02470 | 1.48e6 | 1.60e6 | 1.28e6 | 3.22e5

Records above whose target name begins with M or m (2):
target gene | DRSC id | Kc cell number, rep 1 | Kc cell number, rep 2 | S2R+ cell number, rep 1 | S2R+ cell number, rep 2
Marf1 (Meiosis regulator and mRNA stability factor 1) | DRSC03747 | 1.55e6 | 1.65e6 | 1.24e6 | 2.92e5
Marf1 (Meiosis regulator and mRNA stability factor 1) | DRSC03774 | 5.14e5 | – | 8.68e5 | –

Further entries follow:
target gene | DRSC id | Kc cell number, rep 1 | Kc cell number, rep 2 | S2R+ cell number, rep 1 | S2R+ cell number, rep 2
Vha100-5 (Vacuolar H[+] ATPase 100kD subunit 5) | DRSC02175 | 1.71e6 | 1.74e6 | 1.22e6 | 1.33e6
CG13814 (retired record) | DRSC10069 | 1.74e6 | 1.91e6 | 1.42e6 | 1.58e6
CG13577 | DRSC04213 | 1.41e6 | 1.50e6 | 1.26e6 | 1.30e6
CG32109 | DRSC09816 | 1.29e6 | 1.44e6 | 1.21e6 | 1.26e6
CG10814 | DRSC06004 | 1.30e6 | 1.39e6 | 1.09e6 | 1.10e6
CG12253 | DRSC02153 | 1.27e6 | 1.33e6 | 1.22e6 | 1.12e6
CG44085 | DRSC02922 | 8.55e5 (active) | 9.85e5 | 4.57e5 | 5.86e5
Dhx15 (DEAH-box helicase 15) | DRSC06036 | 1.44e6 | 1.56e6 | 1.16e6 | 1.24e6
Oatp58Dc (Organic anion transporting polypeptide 58Dc) | DRSC04363 | 1.26e6 | 1.35e6 | 1.09e6 | 1.10e6
CG12493 | DRSC08279 | 1.50e6 | 1.37e6 | 1.18e6 | 1.20e6
CG15617 | DRSC06570 | 1.65e6 | 1.68e6 | 1.18e6 | 1.33e6
sun (stunted) | DRSC20140 | 1.48e6 | 1.46e6 | 9.61e5 | 1.12e6
tap (target of Poxn) | DRSC11402 | 1.54e6 | 1.47e6 | 1.15e6 | 1.28e6
Enoph (Enolase-phosphatase) | DRSC12201 | 1.62e6 | 1.78e6 | 1.38e6 | 1.59e6
CG12134 | DRSC06109 | 1.70e6 | 1.65e6 | 1.37e6 | 1.44e6
Anp (Andropin) | DRSC14112 | 1.36e6 | 1.52e6 | 9.23e5 | 1.15e6
CG30414 | DRSC04372 | 1.74e6 | 1.76e6 | 1.20e6 | 1.31e6
Trxr2 (Thioredoxin reductase 2) | DRSC11900 | 1.78e6 | 1.92e6 | 1.38e6 | 1.48e6
SNF4Agamma (SNF4/AMP-activated protein kinase gamma subunit) | DRSC13461 | 1.49e6 | 1.44e6 | 1.06e6 | 1.10e6
SNF4Agamma (SNF4/AMP-activated protein kinase gamma subunit) | DRSC13463 | 1.47e6 | 1.41e6 | 1.02e6 | 1.13e6
SNF4Agamma (SNF4/AMP-activated protein kinase gamma subunit) | DRSC15879 | 1.27e6 | 1.34e6 | 8.40e5 | 9.92e5
SNF4Agamma (SNF4/AMP-activated protein kinase gamma subunit) | DRSC16847 | 1.90e6 | 1.97e6 | 1.52e6 | 1.56e6
CG7884 | DRSC20065 | 1.32e6 | 1.43e6 | 1.10e6 | 1.13e6
gro (groucho) | DRSC16962 | 5.74e5 | – | 7.77e5 | –
EloB (Elongin B) | DRSC16663 | 1.18e6 | 1.26e6 | 9.91e5 | 1.05e6
CG14715 | DRSC14938 | 1.41e6 | 1.51e6 | 1.16e6 | 1.23e6
CG14650 | DRSC12236 | 1.85e6 | 1.88e6 | 1.61e6 | 1.72e6
Edc3 (Enhancer of decapping 3) | DRSC10620 | 1.38e6 | 1.41e6 | 1.24e6 | 1.27e6
